Paper doi:10.1101/2025.08.05.668778 (bioRxiv, 2025)
These are yes or no findings as the source states them, for the method shown.

The chains behind the UniProt entries cited, without tags or fusion partners. Residues count along the entry.
UniProt P19401, residues 42-545: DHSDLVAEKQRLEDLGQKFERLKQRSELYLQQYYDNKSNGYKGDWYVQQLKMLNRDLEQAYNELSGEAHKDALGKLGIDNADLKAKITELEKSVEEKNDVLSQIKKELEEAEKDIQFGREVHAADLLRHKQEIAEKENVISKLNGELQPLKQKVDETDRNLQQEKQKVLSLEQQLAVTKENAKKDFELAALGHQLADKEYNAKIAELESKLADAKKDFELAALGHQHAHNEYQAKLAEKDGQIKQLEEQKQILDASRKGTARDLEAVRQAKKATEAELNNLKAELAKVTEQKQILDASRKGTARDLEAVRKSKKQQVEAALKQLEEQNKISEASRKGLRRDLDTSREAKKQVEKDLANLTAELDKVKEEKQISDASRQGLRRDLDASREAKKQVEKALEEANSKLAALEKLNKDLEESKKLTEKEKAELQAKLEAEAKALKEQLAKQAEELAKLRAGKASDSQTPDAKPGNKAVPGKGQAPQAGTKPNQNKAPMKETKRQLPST
UniProt P08603, residues 19-1231: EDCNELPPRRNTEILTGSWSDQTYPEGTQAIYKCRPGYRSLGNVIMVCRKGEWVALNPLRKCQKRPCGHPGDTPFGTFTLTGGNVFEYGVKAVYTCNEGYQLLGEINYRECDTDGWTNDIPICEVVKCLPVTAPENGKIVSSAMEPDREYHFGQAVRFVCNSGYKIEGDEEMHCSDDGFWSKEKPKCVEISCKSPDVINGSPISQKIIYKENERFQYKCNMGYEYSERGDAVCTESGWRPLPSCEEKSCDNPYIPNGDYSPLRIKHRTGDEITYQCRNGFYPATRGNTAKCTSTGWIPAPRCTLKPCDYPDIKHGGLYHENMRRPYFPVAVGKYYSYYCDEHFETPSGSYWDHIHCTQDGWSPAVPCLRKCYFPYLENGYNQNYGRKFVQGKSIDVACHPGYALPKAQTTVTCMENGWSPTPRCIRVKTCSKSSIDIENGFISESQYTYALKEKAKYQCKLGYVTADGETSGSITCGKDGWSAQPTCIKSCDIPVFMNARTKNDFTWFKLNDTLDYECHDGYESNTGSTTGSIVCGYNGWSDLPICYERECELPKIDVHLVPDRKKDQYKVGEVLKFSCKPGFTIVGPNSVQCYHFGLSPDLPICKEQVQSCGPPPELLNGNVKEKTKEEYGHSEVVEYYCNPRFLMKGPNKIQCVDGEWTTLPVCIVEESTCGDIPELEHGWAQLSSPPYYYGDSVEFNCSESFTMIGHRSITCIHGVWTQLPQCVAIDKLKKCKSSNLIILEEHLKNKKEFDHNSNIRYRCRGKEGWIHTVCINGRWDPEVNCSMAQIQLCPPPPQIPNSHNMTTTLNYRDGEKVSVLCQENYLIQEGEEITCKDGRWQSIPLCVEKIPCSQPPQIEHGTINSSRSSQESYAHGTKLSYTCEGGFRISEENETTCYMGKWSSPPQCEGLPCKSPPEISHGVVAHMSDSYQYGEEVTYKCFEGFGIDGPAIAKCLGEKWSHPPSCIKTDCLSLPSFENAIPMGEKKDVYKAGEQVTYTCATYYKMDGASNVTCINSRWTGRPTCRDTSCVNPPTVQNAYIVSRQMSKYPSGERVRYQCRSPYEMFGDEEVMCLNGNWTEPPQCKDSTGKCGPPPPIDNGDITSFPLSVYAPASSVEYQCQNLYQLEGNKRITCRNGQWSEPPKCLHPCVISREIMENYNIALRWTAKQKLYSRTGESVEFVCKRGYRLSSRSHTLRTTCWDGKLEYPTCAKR

Target: M12 protein (Streptococcus pyogenes) (UniProt P19401)
Assay: ELISA; M, Enn or FbaA protein coated on wells (20 μg/ml in PBS pH 7.2, overnight 4 °C); soluble intact factor H 10 μg/ml, 1 h, RT; bound FH detected with mouse monoclonal anti-human FH and HRP anti-mouse IgG; uncoated wells subtracted; values normalized to wild type; both purified

factor H (intact) (from UniProt P08603 19-1231)
binding: no binding (tested: 10 μg/ml factor H)
